## Primary screen of a compound library

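Whole-parasite assay of Trypanosoma brucei over 72 hours; the read-out is not stated. Compounds at 30 µM. Higher reads as stronger inhibition (inferred: compounds with an IC50 in retests scored well above the rest). Values scatter widely below zero; nearly all retest evidence comes from the higher of the two concentrations used. Of about 64,000 compounds tested this way, about 940 (1.5%) reached 50% or more in at least one test.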

Results are given as percent effect. The record does not define 0% and 100%; most values in the screen are far below 50% and negative numbers occur (in some assays of this library far below -100). Compounds were drawn at random from those tested, without regard to their results.

{"structure": "CSc1ccccc1-n1ccnc1-c1cn(C2CCNCC2)nn1", "percent effect": -40.61}
{"structure": "COc1ccc(CN2CCOCC3(CCN(C4CCOCC4)C3)C2)cc1.O=C(O)C(F)(F)F.O=C(O)C(F)(F)F", "stereo": "centres unmarked", "percent effect": 20.44}
{"structure": "COc1ccc(-c2cc(N)on2)cc1", "percent effect": -29.55}
{"structure": "OCC1(NCc2cnc(-c3ccccn3)s2)CCOCC1", "percent effect": -36.48}
{"structure": "Cc1csc(CN2CCC3(CC2)COC(COc2ccccn2)C3)n1", "stereo": "centres unmarked", "percent effect": 3.415}
{"structure": "Cc1cnn(C2CN(Cc3nc(-c4ccccc4C)no3)C2)c1", "percent effect": -14.17}
{"structure": "CC(C)Oc1cccc(C(=O)C2CCCN(C(=O)c3ccnn3C)C2)c1", "stereo": "centres unmarked", "percent effect": 23.72}
{"structure": "CC(C)c1[nH]c2ncccc2c1CN1CCN(S(=O)(=O)N(C)C)CC1", "percent effect": 3.346}
{"structure": "CCCNC(=O)CSc1nnc2[nH]c(=O)c3c(n12)CCCC3", "percent effect": -24.61}
{"structure": "CC(=O)N1CCN(C(=O)NCCc2ccc(Cl)s2)CC1", "percent effect": 10.04}
{"structure": "CCN(C)c1ncnc2c1CCN(CC1CCOC1)CC2.O=C(O)C(F)(F)F", "stereo": "centres unmarked", "percent effect": -19.93}
{"structure": "COc1cccc(-c2noc(C3CCN(Cc4cccs4)C3)n2)c1.Cl", "stereo": "centres unmarked", "percent effect": -22.98}
{"structure": "CC(Cn1cccn1)NCc1csc2c1CCCC2", "stereo": "centres unmarked", "percent effect": -33.15}
{"structure": "Cc1cc(N2CCC3(CCC(=O)N(CC4CC4)C3)CC2)ncn1", "percent effect": -9.958}
{"structure": "CCOCC(=O)NCc1cc(C2CC2)n(C2CCCC2)n1", "percent effect": -7.343}
{"structure": "O=C(O)c1ccc2c(CN3CCOCC3)c[nH]c2c1", "percent effect": -22.13}
{"structure": "Cc1cccc2c1nc1n2[C@@H](CNC(=O)CCC(=O)O)COC1", "percent effect": -5.145}
{"structure": "c1coc(-c2nnc(CN(Cc3cccs3)CC3CCCO3)o2)c1", "stereo": "centres unmarked", "percent effect": 2.274}
{"structure": "Cc1cc(C)cc(NS(=O)(=O)c2cc3c(c(C(=O)O)c2)OCCO3)c1", "percent effect": 8.183}
{"structure": "O=C(NCCc1c[nH]cn1)c1ccc(S(=O)(=O)NC2CCOC2)cc1", "stereo": "centres unmarked", "percent effect": -71.87}
{"structure": "Cc1cc(C)n(CCC(=O)N2CCCCC2c2nccs2)n1", "stereo": "centres unmarked", "percent effect": -46.08}
{"structure": "Cc1nc(CN2CCC3(CCN(Cc4cnn(C)c4)CC3)C2=O)cs1.O=C(O)C(F)(F)F.O=C(O)C(F)(F)F", "percent effect": -10.23}
{"structure": "Cn1cc(-c2cc(C(F)(F)F)nn2CCC#N)cn1", "percent effect": -26.57}
{"structure": "COc1ccc(-c2noc(C3CCS(=O)(=O)C3)n2)cc1OC", "stereo": "centres unmarked", "percent effect": 9.75}
{"structure": "Cc1nc(CN2CCOCC3(CCN(c4cccnc4)CC3)C2)cs1.O=C(O)C(F)(F)F.O=C(O)C(F)(F)F", "percent effect": -50.37}
{"structure": "Cc1nc(C)c(C(=O)NCCNc2ncccn2)s1", "percent effect": 18.19}
{"structure": "Cc1cc(C(=O)N2CCC(n3cc(CO)nn3)CC2)ccc1F", "percent effect": 7.784}
{"structure": "Cc1ccc(CNC(=O)c2c[nH]nc2NC(=O)C2COCCO2)cc1", "stereo": "centres unmarked", "percent effect": -2.404}

The last 2 entries again:

| structure | percent effect |
|---|---|
| `Cc1cc(C(=O)N2CCC(n3cc(CO)nn3)CC2)ccc1F` | 7.784 |
| `Cc1ccc(CNC(=O)c2c[nH]nc2NC(=O)C2COCCO2)cc1` (centres unmarked) | -2.404 |

Source: ChEMBL document CHEMBL3988442, “University of Dundee, Small-Polar-MMV Screening Library” (2021).